At least one structure is not confirmed: it was looked up by name or label, or the drawing left a doubt.
Test system: MDA-MB-468 cells
Test: Western blot of total, K48-linked and K63-linked Ub conjugates after EGF
Assay type: cell-based, human
Settings: pretreated 12 hours before EGF treatment; FIGS. 5B-E
Procedure: FIG. 3. EGFR enhances proteasomal degradation and promotes K48-linked ubiquitin conjugates. (A). MDA-MB-468 cells were serum starved for 24 hours and labeled with ^35S-Met for 24 hours. […] The rate of protein degradation was shown as the fraction of radiolabelled protein remaining over time. Data were mean±SD of three independent experiments. (**: p<0.01, two-way ANOVA test). (B and C). MDA-MB-468 cells were treated as in (A), except that 20 nM bortezomib (B) or 10 μM chloroquine (C) was present in the chase media. Data were mean±SD of three independent experiments. (**: p<0.01, two-way ANOVA test). (D). […] Total Ub conjugates, K48-linked conjugates, and K63-linked conjugates were determined by Western blot, and their intensities were quantitated and normalized to that of β-actin and then to time 0 in each group. Data were mean±SD of three independent experiments. (**: p<0.01, Student's t-test). (E). […] Total Ub conjugates, K48-linked conjugates, and K63-linked conjugates were determined by Western blot, and their intensities were quantitated and normalized to that of β-actin and then to control in each group. Data were mean±SD of three independent experiments. […] Total Ub conjugates, K48-linked conjugates, and K63-linked conjugates were determined by Western blot, and their intensities were quantitated and normalized to that of β-actin and then to time 0 in each group. […]

O=c1cc(N2CCOCC2)oc2c(-c3ccccc3)cccc12 [LY294002]
effect on stimulation of Ub chain assembly by EGF: did not affect
